Library screen at single concentrations

Measurements from “University of Dundee, Small-Polar-MMV Screening Library” (2021), ChEMBL document CHEMBL3988442.

Mtb cholesterol medium: 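Whole-cell growth test on Mycobacterium tuberculosis, read after 4 days in a medium based on cholesterol and the lipid DPPC; the read-out is not stated. Compounds at 50 µM. Direction is inferred from retests: higher values go with more growth inhibition. About 69,000 compounds were tested under these conditions; 0.54% (about 370) showed 50% or more at least once.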
Mtb glucose medium: 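Growth of Mycobacterium tuberculosis over 3 days (7H9 medium with glucose and tyloxapol); the read-out is not stated. Tested at 50 µM. Higher reads as more growth inhibition (inferred: compounds with an IC50 in retests scored well above the rest). Size under these conditions: about 69,000 compounds, about 760 of them at 50% or above in at least one test.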

Results are given as percent effect. The controls that fix the scale are not given in the record; negative values are as filed. This is an unselected part of the compounds tested. Two or more numbers in one place are separate tests of the same structure; such repeats can differ widely.

{"compound": "O=C(O)C(F)(F)F.[H][C@@]12CCCO[C@]1([H])[C@H](NC(=O)CC1CC1)CN(Cc1ccc(F)cc1)C2", "Mtb cholesterol medium": -0.7542, "Mtb glucose medium": "-1.333 & 1.935"}
{"compound": "O=S1(=O)NC(c2ccnc(N3CCCC3)n2)=Nc2ccccc21", "Mtb cholesterol medium": 14.47, "Mtb glucose medium": 2.635}
{"compound": "COc1cccc(CN2CC(O)CN(C(=O)C3CCC3)CC2=O)c1OC", "stereo": "centres undefined", "Mtb cholesterol medium": -7.043, "Mtb glucose medium": 13.63}
{"compound": "Cc1ccc(OC[C@@H]2CNC[C@H](C(=O)NCC3CCCO3)C2)cn1", "stereo": "some centres undefined", "Mtb cholesterol medium": 1.533, "Mtb glucose medium": 19.97}
{"compound": "CC(=O)N1CCC(c2cnc(-c3c(C)n[nH]c3C)cn2)CC1", "Mtb cholesterol medium": 11.13, "Mtb glucose medium": 26.65}
{"compound": "Cc1nc(C)n(C2CCCN(C(=O)CCc3ccncc3)C2)n1", "stereo": "centres undefined", "Mtb cholesterol medium": "-2.051 & -1.246", "Mtb glucose medium": 19.15}
{"compound": "O=c1c2cccnc2cnn1CC(O)c1ccc(F)c(F)c1", "stereo": "centres undefined", "Mtb cholesterol medium": 22.6, "Mtb glucose medium": 42.82}
{"compound": "Cc1nnc(CN(C)Cc2nc3c(s2)CCCC3)o1", "Mtb cholesterol medium": 18.41, "Mtb glucose medium": 8.316}
{"compound": "Cc1ccc(C(=O)NS(=O)(=O)c2cc(Br)ccc2C)c(=O)[nH]1", "Mtb cholesterol medium": 10.33, "Mtb glucose medium": "-5.302 & -32.73"}
{"compound": "CCc1noc(C)c1C(=O)NCc1cc[nH]n1", "Mtb cholesterol medium": -6.349, "Mtb glucose medium": "-12.11 & 4.501"}
{"compound": "Cc1ccc(S(=O)(=O)n2ccc(C(=O)NCC(F)(F)F)c2)cc1", "Mtb cholesterol medium": 9.514, "Mtb glucose medium": 15.47}
{"compound": "CC(C)OC(=O)N1CCCC(c2nccn2Cc2ccncc2)C1", "stereo": "centres undefined", "Mtb cholesterol medium": "-10.88 & 1.045", "Mtb glucose medium": -10.64}
{"compound": "Cc1ccc(-c2cc(CN3CCOC(Cn4cncn4)C3)on2)cc1", "stereo": "centres undefined", "Mtb cholesterol medium": 11.25, "Mtb glucose medium": 22.13}
{"compound": "CC(=O)c1ccn(CC(=O)Nc2nn(CC3CC3)c3ccccc23)n1", "Mtb cholesterol medium": -2.089, "Mtb glucose medium": "9.377 & -4.213"}
{"compound": "CCSc1cccc(NCc2cccnc2)c1", "Mtb cholesterol medium": 10.31, "Mtb glucose medium": 6.539}
{"compound": "Cc1cc(F)ccc1OC1(C(=O)O)CCN(Cc2nccn2C)CC1", "Mtb cholesterol medium": 2.931, "Mtb glucose medium": "-1.417 & 12.74"}
{"compound": "Cc1ccc(NC2CCN(C(=O)c3cc(C)sc3C)CC2)nn1", "Mtb cholesterol medium": 20.26, "Mtb glucose medium": 21.11}
{"compound": "Cc1ncsc1C(=O)N(Cc1cccnc1)C1CC1", "Mtb cholesterol medium": 1.404, "Mtb glucose medium": -20.51}
{"compound": "COc1ccc(OC(F)F)c(NCC(=O)NCC(=O)N2CCCC2)c1", "Mtb cholesterol medium": -1.384, "Mtb glucose medium": 27.16}
{"compound": "CCC(CC)C(=O)N1CCc2nc(N3CCCC3)nc(C)c2CC1", "Mtb cholesterol medium": -13.34, "Mtb glucose medium": 5.787}
{"compound": "COCC1CCN(C(=O)c2cn(Cc3ccccc3F)nn2)CC1", "Mtb cholesterol medium": 8.606, "Mtb glucose medium": 14.01}
{"compound": "CN1CCC(n2nc(Cc3cccs3)nc2-c2ccncc2)CC1", "Mtb cholesterol medium": -8.571, "Mtb glucose medium": "-1.471 & -2.055"}
{"compound": "COCCCn1nnc(C2(NC(=O)c3ccccc3)CCCC2)n1", "Mtb cholesterol medium": -5.182, "Mtb glucose medium": -42.92}
{"compound": "COc1cc2nc(NCCNS(C)(=O)=O)cc(C)c2cc1OC", "Mtb cholesterol medium": -24.31, "Mtb glucose medium": 3.751}
{"compound": "Cc1cnn(CC2CCCCN2C(=O)Cn2nc(C)c(Cl)c2C)c1", "stereo": "centres undefined", "Mtb cholesterol medium": 14.15, "Mtb glucose medium": 27.87}
{"compound": "CC(C)CN1CC(C(=O)NCc2cccnc2-n2cccn2)CC1=O", "stereo": "centres undefined", "Mtb cholesterol medium": 13.38, "Mtb glucose medium": -15.76}
{"compound": "CCCc1n[nH]c(C2CN(CCS(=O)(=O)CC)CCO2)n1", "stereo": "centres undefined", "Mtb cholesterol medium": 17.81, "Mtb glucose medium": -5.736}
{"compound": "CCc1nc(C)cc(NC(C)C(=O)Nc2cc(F)ccc2C)n1", "stereo": "centres undefined", "Mtb cholesterol medium": 1.228, "Mtb glucose medium": 13.9}
{"compound": "CCc1ccsc1C(=O)N1CCCC(c2noc(C)n2)C1", "stereo": "centres undefined", "Mtb cholesterol medium": 12.45, "Mtb glucose medium": "22.07 & 18.92"}
{"compound": "CCCN1CC(C(=O)Nc2ccccn2)CC1=O", "stereo": "centres undefined", "Mtb cholesterol medium": 22.73, "Mtb glucose medium": 20.94}
{"compound": "CC(NC(=O)CCCc1ccc(Cl)cc1)c1nnn[nH]1", "stereo": "centres undefined", "Mtb cholesterol medium": "-1.914 & -6.744", "Mtb glucose medium": -5.214}
{"compound": "NS(=O)(=O)c1cnn(CC(=O)Nc2c(Cl)cccc2Cl)c1", "Mtb cholesterol medium": "-3.306 & -3.751", "Mtb glucose medium": 4.892}
{"compound": "CCCN1CCc2nc(SCc3ccccc3)[nH]c(=O)c2C1", "Mtb cholesterol medium": -22.6, "Mtb glucose medium": "-28.37 & -3.702"}
{"compound": "Cc1cnn(CCCNC(=O)CCC2CCCCN2C)c1", "stereo": "centres undefined", "Mtb cholesterol medium": -15.56, "Mtb glucose medium": 7.993}
{"compound": "CCOCCCC(=O)N1CCN(C(=O)Cc2cccc(OC)c2)CC1", "Mtb cholesterol medium": -3.841, "Mtb glucose medium": -1.439}
{"compound": "COc1ccc(CC(=O)N2Cc3nccn3CC(CN(C)C)C2)cc1.O=C(O)C(F)(F)F", "stereo": "centres undefined", "Mtb cholesterol medium": 3.399, "Mtb glucose medium": -32.78}
{"compound": "c1ccc2oc(N3CCC(c4nncn4C4CC4)CC3)nc2c1", "Mtb cholesterol medium": -22.48, "Mtb glucose medium": "-14.16 & -39.82"}
{"compound": "Cc1cccc(CNC(=O)Nc2ccn(CCCC(=O)N(C)C)n2)c1", "Mtb cholesterol medium": 4.276, "Mtb glucose medium": 29.37}
{"compound": "Cn1cc(Cl)c(C(=O)N2CCc3nc4sccc4c(=O)n3CC2)n1", "Mtb cholesterol medium": 0.6363, "Mtb glucose medium": -3.225}
{"compound": "CCNC(=O)c1nnn(Cc2ccccc2)c1OC", "Mtb cholesterol medium": 8.633, "Mtb glucose medium": 10.9}